Test results taken from publication PMC10252594 (Cancers, 2023).

Test system: LAPC-4 cells
Assay: Total cholesterol in LAPC-4 cells (kit)
Assay type: cell-based, human
Conditions: Table S2
Protocol: A cholesterol quantification kit provided by Sigma-Aldrich (Catalog Number MAK043) was used following the manufacturer’s instructions to determine the concentration of total cholesterol, free cholesterol, and cholesteryl ester in samples. The cholesterol contents were measured in samples from two different protocols. Firstly, in LAPC-4 cells treated (18, 36, and 72 h) or not with RM-581 (2 µM) or atorvastatin (10 µM). Secondly, in tumor, liver, and plasma obtained at the end of the LAPC-4 xenograft experiment (control group and the group treated with RM-581 at 10 mg/kg/PO).

CC(C)c1c(C(=O)Nc2ccccc2)c(-c2ccccc2)c(-c2ccc(F)cc2)n1CC[C@@H](O)C[C@@H](O)CC(=O)O [atorvastatin, reference compound]
Total cholesterol concentration in LAPC-4 cells (18 h, RM-581 2 μM or atorvastatin 10 μM): 59 ± 3.5
Total cholesterol concentration in LAPC-4 cells (36 h, RM-581 2 μM or atorvastatin 10 μM): 61 ± 0.4
Total cholesterol concentration in LAPC-4 cells (72 h (first line, control 66 ± 2), RM-581 2 μM or atorvastatin 10 μM): 70 ± 1
Total cholesterol concentration in LAPC-4 cells (72 h (second line, control 108 ± 6.5), atorvastatin 10 μM): 50 ± 2
